{"source": "paper PMC8450094", "key": {"[1]": {"biological_target": "T1, SNM1B/Apollo WT (Homo sapiens) (UniProt Q9H816)", "T1 sequence (looked up)": "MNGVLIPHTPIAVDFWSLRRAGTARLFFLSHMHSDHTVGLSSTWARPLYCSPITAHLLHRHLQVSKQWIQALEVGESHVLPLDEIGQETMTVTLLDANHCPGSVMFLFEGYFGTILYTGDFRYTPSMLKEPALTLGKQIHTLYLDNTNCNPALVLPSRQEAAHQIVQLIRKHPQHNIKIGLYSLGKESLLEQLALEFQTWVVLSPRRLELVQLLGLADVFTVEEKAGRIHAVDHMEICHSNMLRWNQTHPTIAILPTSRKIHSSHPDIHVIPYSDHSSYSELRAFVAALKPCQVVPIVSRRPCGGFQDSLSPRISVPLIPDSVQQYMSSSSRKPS", "assay": "EMSA", "conditions": "1 nM DNA, 37 C, 5 min, EMSA: 1 nM DNA, 10% native PAGE, recombinant protein, residues 1-335, single-stranded DNA"}, "[2]": {"biological_target": "T1, SNM1B/Apollo WT (Homo sapiens)", "assay": "fluorescence anisotropy", "conditions": "10 nM DNA; 5' phosphate; FP: 20 mM HEPES pH 7.5, 50 mM KCl, 0.5 mM TCEP, room temperature, 5 min, DNA 25 nM (Methods) or 50 nM (legends; 10 nM in Suppl. Fig. 14C); recombinant protein; residues 1-335; label: internal fluorescein-dT at position 13; single-stranded DNA"}, "[3]": {"biological_target": "T2, SNM1B H61Y (Homo sapiens) (UniProt Q9H816)", "T2 sequence (looked up)": "T1 sequence (looked up) with H61Y", "assay": "fluorescence anisotropy", "conditions": "10 nM DNA; 5' phosphate; FP: 20 mM HEPES pH 7.5, 50 mM KCl, 0.5 mM TCEP, room temperature, 5 min, DNA 25 nM (Methods) or 50 nM (legends; 10 nM in Suppl. Fig. 14C); recombinant protein; residues 1-335; protein details: C-terminal His10-FLAG, TEV cleavage stated; label: internal fluorescein-dT at position 13; single-stranded DNA"}}, "note": "Numbering of substitutions follows the chain as printed. For at least one entry, the source does not settle the construct or the ends of the probe. For some of these results: Weaker means in comparison with the reference protein, sequence or condition of that experiment. Where a protein sequence is shown, tags need not be part of it."}
{"sequence": "ATAATAGATGATCAAATTAT [21 nt ssDNA 5' phosphate (oligo 7)]", "values": [{"measurement": "binding result", "setting": "[1]; digestion products also seen, 5' phosphate", "result": "binds"}]}
{"sequence": "ATAATAGATGATCAAATTAT [21 nt ssDNA 5' hydroxyl (oligo 8)]", "values": [{"measurement": "binding result", "setting": "[1]; 5' phosphate preferred, 5' OH", "result": "binds more weakly"}]}
{"sequence": "ATAATTTGATCATCTATTATA [20 nt ssDNA FP probe (probably oligo 19)]", "values": [{"measurement": "Kd", "setting": "[2]", "result": 153, "unit": "nM"}, {"measurement": "Kd", "setting": "[3]", "result": 175, "unit": "nM"}]}
